Test results taken from US20260256790A1, “DEBIO-0123 IN COMBINATION WITH TEMOZOLOMIDE AND RADIOTHERAPY FOR USE IN TREATING GLIOMA” (Debiopharm International S.A., priority 2023, published 2026).
At least one compound was matched to its structure with a doubt left.

Tested on: U87-MG-luc GBM cell line
Assay: U87-MG-luc tumors implanted intracranially in mice, combination with temozolomide
Type: in vivo
Details: TMZ monotherapy 3 mg/kg oral QD
Procedure: Male athymic nude mice were injected into the cerebellum with 1×10^5 U87-MG-luc cells in Matrigel. Animals were imaged to monitor tumor establishment and growth throughout the study using an In Vivo Imaging System (IVIS) once weekly, detecting tumor bioluminescence (BLI) in photons. Once tumor establishment was confirmed, animals were randomly allocated into 8 treatment groups: vehicle (0.5% methycellulose, 1% Tween 80 P.O. and saline IV.), Compound of formula (I) [CoF (I)](formulated as a suspension in 0.5% methycellulose and 1% Tween 80) administered orally at 3 mg/kg, at 10 mg/kg or at 30 mg/kg once daily (QD) in monotherapy, temolozomide [TMZ] administered orally at 3 mg/kg once daily (QD) in monotherapy, over a 28 day cycle, and combination of TMZ+compound of formula (I) at each dose) (n=6 animals per group for monotherapy groups and n=8 animals per group for combination groups). In combination arms, Compound of formula (I) and was administered 2 hours prior to TMZ. During routine monitoring, the animals were checked for any effects of tumor growth and treatments on behavior such as mobility, food and water consumption, body weight gain/loss 3 times a week, eye/hair matting and any other abnormalities. Mortality and observed clinical signs were recorded for individual animals in detail.

## Cn1nnc2c(C(N)=O)ncn2c1=O [TMZ, temozolomide]
  Animals experiencing complete responses: 3 out of 6
p=0.0066 on day 36
  Anti-tumor response vs vehicle: significant anti-tumor response
